These are yes or no findings as the source states them, for the method shown. Binding seen in cells or lysates may run through a third protein. Some results given as binding are weak or reduced against the parent protein; the word gives no strength.
What was measured:
[1] = target: Mule (Mcl-1 ubiquitin ligase E3 (Mule)/ARF-BP1) (human (endogenous in THP-1)) (UniProt Q7Z6Z7); assay: co-IP; lysates of mock-infected or D39 pneumococcus-exposed differentiated THP-1 cells (16 h, with or without pepstatin A) in 2% CHAPS buffer (20 mM Tris-HCl pH 7.4, 137 mM NaCl, 2 mM EDTA); anti-Mule (Abcam) overnight at 4°C, protein A agarose; blotted for Mule, Hsp70 and Mcl-1; control with non-specific rabbit IgG
[2] = target: Mcl-1 (human (endogenous in THP-1)) (UniProt Q07820); assay: co-IP; lysates of mock-infected or D39 pneumococcus-exposed differentiated THP-1 cells (time course 4-16 h; at 16 h with or without pepstatin A) in 2% CHAPS buffer (20 mM Tris-HCl pH 7.4, 137 mM NaCl, 2 mM EDTA); anti-Mcl-1 (sc-819) overnight at 4°C, protein A agarose; blotted for Hsp70, Mule and Mcl-1; control with an excess of the Mcl-1 peptide

Chains of the proteins cited; added tags and fusions are not shown.
UniProt Q7Z6Z7: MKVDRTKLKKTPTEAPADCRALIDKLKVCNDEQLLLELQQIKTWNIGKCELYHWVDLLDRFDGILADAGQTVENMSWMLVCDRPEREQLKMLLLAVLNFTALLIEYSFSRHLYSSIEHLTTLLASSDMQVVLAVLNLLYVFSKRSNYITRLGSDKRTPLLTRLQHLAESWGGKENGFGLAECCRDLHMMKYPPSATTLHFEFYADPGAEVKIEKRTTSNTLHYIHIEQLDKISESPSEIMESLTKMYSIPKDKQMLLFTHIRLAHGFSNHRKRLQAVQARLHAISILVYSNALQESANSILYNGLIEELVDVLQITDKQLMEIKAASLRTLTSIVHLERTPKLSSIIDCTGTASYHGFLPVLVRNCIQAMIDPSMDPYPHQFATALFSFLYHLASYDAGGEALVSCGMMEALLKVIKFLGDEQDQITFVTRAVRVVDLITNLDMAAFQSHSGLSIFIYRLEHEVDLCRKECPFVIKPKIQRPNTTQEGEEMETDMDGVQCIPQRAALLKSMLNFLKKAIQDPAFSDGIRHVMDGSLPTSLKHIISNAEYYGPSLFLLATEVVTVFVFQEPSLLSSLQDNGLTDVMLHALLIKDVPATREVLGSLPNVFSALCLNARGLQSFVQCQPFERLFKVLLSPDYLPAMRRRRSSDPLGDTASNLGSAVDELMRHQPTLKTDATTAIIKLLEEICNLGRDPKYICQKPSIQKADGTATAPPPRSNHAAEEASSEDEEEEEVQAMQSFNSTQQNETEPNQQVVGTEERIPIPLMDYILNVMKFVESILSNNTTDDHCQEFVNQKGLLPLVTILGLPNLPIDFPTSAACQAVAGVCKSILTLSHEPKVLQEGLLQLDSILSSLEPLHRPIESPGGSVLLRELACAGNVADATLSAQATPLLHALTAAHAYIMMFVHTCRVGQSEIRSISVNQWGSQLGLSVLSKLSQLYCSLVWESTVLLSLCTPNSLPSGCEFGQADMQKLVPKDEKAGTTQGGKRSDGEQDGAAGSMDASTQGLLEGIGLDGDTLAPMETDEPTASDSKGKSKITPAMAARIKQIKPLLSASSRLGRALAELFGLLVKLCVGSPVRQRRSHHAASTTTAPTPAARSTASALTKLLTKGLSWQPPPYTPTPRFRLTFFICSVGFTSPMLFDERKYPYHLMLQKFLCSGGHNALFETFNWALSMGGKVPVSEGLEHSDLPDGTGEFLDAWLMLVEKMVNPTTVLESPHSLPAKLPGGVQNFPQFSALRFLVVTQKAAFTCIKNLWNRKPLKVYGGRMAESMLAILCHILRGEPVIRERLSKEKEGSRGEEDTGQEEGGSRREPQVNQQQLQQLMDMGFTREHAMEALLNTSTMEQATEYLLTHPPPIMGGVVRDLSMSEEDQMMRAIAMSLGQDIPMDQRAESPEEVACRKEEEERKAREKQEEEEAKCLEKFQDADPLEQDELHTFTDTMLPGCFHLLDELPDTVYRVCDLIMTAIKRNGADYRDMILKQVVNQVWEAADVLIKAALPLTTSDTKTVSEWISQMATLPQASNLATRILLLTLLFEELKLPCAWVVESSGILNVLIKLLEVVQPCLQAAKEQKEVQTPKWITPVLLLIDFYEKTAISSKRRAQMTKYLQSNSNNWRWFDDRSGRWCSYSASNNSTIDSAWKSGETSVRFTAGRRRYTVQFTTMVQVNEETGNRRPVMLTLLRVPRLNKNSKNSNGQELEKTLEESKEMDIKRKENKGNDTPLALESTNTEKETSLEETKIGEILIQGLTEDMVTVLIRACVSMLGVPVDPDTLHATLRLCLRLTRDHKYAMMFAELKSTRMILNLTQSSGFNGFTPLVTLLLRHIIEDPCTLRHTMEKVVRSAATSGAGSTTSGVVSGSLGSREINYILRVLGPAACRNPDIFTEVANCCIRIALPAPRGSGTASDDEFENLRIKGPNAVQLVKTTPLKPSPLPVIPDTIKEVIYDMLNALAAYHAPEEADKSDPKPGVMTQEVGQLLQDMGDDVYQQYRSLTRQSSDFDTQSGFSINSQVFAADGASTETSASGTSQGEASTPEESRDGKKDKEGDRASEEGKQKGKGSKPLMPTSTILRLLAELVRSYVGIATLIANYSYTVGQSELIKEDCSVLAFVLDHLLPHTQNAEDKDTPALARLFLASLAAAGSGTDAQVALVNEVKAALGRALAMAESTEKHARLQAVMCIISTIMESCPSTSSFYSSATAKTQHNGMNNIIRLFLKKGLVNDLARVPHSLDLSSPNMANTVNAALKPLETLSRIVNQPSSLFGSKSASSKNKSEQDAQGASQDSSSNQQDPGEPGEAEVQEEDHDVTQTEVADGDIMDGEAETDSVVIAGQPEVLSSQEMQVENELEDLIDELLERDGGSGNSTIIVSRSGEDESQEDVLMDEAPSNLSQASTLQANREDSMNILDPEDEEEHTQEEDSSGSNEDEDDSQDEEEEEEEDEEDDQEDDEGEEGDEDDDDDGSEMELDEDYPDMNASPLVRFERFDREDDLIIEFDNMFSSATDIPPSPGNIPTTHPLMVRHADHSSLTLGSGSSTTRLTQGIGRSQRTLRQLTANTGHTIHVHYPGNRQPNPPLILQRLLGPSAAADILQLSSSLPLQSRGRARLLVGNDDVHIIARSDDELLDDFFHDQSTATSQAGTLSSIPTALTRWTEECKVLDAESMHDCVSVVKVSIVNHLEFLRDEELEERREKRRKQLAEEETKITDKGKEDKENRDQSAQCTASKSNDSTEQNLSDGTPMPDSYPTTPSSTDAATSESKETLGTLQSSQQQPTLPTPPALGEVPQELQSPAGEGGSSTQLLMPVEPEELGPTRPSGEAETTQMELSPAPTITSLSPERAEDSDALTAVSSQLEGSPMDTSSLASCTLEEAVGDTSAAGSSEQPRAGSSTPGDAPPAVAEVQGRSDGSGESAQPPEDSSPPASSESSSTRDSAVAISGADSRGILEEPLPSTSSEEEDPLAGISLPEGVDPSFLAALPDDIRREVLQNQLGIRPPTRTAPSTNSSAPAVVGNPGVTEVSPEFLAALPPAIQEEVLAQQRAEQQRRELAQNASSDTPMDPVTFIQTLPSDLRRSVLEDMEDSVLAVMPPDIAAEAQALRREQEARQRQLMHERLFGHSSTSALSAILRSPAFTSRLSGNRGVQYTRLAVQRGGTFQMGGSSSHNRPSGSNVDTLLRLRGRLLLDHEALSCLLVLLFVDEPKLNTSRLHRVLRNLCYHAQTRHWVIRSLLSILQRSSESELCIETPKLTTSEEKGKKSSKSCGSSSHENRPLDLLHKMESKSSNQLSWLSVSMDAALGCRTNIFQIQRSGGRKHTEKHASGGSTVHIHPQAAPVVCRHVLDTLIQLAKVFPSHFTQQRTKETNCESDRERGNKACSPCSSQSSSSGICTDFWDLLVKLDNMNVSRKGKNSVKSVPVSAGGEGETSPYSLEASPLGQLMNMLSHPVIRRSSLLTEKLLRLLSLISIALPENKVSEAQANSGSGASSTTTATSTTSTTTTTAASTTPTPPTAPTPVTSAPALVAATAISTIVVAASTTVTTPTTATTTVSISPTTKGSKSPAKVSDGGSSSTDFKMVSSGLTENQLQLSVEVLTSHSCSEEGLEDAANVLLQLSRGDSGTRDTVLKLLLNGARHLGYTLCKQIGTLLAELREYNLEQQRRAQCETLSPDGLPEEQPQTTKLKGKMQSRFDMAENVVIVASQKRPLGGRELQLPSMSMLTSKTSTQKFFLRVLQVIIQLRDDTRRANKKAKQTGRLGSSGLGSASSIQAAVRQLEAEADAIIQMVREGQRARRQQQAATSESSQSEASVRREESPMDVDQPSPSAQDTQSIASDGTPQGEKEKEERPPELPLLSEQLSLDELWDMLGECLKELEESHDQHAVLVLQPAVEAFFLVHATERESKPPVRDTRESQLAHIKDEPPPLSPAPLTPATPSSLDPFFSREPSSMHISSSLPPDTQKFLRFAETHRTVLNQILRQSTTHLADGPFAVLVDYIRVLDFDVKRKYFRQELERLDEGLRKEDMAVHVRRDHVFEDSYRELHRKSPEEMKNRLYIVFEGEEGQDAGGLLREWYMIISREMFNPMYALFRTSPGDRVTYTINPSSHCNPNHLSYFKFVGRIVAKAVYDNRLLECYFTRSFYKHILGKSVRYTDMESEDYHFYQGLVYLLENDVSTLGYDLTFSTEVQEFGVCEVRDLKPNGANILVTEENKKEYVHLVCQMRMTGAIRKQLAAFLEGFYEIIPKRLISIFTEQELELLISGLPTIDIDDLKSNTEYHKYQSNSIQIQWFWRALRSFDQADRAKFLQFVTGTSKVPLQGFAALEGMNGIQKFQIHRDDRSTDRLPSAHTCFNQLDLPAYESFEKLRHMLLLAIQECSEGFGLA
UniProt Q07820: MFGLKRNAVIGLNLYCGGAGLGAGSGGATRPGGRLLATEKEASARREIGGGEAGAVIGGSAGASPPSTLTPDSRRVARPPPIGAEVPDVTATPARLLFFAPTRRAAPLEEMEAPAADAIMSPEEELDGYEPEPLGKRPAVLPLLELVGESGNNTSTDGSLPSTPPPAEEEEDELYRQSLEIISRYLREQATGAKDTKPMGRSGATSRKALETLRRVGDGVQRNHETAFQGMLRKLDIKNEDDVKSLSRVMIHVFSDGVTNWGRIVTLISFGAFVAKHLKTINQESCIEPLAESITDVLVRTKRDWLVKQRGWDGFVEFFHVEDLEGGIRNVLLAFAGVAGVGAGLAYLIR

Row | binding [1] | binding [2] | Substance
1 | binds |  | Mcl-1 (from UniProt Q07820 1-350)
2 |  | binds | Mule (Mcl-1 ubiquitin ligase E3 (Mule)/ARF-BP1) (from UniProt Q7Z6Z7 1-4374) (enzyme)

— publication PMC3029254
